Measurements reported in the supplement of paper PMC10849652.
Some of the results follow.

Sequences of proteins named here, by UniProt entry; tags and fusion partners are left off. A change or cut given only in a name is not applied to a line headed by its entry.
UniProt Q96KR6: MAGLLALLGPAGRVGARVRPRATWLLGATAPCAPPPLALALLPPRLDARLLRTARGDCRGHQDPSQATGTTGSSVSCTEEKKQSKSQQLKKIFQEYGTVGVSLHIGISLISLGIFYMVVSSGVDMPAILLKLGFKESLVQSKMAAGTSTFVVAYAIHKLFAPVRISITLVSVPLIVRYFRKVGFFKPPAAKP
UniProt P07954: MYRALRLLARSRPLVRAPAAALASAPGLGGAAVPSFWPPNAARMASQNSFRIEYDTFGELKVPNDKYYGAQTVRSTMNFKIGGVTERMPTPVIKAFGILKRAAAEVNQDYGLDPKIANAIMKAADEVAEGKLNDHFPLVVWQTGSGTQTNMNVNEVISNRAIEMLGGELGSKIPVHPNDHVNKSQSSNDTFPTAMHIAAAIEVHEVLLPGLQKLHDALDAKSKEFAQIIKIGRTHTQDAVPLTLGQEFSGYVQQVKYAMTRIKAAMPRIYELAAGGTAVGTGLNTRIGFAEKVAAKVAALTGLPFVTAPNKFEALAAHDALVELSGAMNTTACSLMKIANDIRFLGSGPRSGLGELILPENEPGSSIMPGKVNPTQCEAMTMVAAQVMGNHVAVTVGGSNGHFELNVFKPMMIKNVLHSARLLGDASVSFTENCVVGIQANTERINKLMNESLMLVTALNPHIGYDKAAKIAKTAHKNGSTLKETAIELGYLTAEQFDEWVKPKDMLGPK
UniProt Q9NUQ9: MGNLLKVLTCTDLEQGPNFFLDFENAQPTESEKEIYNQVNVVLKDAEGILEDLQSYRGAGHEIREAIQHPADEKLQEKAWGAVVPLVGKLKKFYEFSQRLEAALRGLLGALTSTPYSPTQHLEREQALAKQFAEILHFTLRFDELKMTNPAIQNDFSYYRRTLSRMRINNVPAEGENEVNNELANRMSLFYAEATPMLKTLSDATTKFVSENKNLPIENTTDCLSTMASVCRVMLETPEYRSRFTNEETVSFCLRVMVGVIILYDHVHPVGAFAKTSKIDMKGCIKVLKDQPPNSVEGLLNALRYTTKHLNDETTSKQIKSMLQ
UniProt Q9UBU6: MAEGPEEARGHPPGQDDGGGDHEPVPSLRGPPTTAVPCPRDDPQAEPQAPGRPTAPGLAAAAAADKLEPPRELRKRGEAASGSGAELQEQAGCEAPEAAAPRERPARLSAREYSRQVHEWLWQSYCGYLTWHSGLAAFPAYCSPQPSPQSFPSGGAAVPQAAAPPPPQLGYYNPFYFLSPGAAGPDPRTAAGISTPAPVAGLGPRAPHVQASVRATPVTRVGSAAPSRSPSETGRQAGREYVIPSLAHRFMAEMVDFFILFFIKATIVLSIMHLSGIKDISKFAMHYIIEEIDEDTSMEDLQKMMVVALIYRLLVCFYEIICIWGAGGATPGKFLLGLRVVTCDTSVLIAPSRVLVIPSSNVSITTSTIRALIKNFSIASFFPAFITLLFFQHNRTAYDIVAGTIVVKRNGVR
UniProt Q6P4F2: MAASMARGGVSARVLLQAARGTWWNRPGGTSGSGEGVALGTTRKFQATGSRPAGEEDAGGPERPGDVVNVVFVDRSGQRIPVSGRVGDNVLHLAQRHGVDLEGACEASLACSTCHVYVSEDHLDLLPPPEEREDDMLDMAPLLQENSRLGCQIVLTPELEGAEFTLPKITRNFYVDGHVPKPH
UniProt P37268: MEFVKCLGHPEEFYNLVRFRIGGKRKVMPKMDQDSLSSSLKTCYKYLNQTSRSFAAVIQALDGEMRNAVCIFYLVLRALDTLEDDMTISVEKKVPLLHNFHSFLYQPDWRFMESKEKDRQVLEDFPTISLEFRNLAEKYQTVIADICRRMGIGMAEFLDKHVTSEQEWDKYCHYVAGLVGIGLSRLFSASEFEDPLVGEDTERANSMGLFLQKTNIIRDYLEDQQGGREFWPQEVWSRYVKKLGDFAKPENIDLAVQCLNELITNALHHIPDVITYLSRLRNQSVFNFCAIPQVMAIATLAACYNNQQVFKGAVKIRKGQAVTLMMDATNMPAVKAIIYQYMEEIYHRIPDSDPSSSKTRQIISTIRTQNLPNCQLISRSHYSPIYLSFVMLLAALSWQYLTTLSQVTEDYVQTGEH
UniProt Q9NXK8: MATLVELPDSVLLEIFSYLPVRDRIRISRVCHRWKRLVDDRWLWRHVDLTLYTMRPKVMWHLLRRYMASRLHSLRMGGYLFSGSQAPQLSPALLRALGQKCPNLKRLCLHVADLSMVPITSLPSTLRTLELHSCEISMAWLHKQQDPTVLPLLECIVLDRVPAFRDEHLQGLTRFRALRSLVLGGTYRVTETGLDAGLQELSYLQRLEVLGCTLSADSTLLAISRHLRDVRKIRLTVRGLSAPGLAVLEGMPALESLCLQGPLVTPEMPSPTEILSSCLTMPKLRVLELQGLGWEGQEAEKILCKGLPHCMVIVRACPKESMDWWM
UniProt Q0JRZ9: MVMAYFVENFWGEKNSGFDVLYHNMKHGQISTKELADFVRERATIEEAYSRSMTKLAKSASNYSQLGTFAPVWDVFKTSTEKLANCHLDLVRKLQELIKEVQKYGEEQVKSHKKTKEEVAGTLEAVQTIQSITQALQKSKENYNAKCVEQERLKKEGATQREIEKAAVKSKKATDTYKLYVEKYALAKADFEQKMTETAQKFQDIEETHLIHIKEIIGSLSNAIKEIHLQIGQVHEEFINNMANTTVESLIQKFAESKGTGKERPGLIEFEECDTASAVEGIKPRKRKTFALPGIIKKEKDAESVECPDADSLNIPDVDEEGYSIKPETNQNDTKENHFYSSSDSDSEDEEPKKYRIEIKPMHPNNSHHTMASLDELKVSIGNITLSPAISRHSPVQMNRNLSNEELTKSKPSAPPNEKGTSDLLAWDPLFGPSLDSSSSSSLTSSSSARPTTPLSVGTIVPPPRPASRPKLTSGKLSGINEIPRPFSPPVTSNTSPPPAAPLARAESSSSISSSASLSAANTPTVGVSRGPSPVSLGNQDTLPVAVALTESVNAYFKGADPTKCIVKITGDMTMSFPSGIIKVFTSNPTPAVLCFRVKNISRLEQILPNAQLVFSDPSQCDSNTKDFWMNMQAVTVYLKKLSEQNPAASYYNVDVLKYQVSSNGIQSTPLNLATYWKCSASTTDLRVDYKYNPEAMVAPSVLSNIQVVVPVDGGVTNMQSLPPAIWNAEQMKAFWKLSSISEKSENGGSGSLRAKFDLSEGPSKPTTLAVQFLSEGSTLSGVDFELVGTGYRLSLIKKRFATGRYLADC
UniProt Q6PIJ6: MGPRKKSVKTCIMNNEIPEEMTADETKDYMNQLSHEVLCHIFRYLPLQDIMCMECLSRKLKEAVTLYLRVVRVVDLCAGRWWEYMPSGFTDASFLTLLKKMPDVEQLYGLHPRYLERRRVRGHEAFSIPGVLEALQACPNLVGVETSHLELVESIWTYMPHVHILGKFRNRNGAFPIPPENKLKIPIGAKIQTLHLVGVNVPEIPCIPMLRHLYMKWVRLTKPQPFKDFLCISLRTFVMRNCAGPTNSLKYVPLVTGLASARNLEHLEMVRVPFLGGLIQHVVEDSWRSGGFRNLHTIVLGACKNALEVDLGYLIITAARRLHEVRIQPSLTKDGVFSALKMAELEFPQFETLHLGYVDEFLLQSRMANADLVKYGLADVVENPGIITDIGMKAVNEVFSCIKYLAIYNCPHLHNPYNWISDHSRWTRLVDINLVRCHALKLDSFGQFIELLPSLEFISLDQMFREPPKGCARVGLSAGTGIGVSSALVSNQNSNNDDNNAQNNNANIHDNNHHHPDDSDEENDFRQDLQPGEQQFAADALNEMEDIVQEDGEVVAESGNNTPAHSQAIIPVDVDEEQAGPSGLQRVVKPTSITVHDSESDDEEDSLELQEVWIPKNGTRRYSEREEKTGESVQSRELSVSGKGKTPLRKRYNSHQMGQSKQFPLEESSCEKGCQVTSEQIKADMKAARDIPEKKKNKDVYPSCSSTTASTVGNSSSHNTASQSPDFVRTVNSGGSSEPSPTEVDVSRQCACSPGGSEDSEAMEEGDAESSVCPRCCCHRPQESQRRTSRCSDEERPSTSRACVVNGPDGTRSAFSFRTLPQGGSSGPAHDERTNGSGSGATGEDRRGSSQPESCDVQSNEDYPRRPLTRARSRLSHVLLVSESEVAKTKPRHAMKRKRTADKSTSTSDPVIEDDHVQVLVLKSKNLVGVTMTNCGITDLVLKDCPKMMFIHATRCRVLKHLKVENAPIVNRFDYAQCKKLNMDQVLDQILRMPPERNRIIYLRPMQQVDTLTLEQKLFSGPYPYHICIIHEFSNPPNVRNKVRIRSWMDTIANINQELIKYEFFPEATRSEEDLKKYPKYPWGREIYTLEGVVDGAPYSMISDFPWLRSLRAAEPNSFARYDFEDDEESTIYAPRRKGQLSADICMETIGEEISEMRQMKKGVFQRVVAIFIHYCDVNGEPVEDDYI
UniProt Q00688: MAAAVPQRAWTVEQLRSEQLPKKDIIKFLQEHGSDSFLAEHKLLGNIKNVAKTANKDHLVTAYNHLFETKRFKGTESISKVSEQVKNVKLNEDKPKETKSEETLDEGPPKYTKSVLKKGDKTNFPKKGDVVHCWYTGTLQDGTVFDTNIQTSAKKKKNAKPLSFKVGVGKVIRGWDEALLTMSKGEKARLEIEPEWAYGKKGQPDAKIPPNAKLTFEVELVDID
UniProt Q9Y613: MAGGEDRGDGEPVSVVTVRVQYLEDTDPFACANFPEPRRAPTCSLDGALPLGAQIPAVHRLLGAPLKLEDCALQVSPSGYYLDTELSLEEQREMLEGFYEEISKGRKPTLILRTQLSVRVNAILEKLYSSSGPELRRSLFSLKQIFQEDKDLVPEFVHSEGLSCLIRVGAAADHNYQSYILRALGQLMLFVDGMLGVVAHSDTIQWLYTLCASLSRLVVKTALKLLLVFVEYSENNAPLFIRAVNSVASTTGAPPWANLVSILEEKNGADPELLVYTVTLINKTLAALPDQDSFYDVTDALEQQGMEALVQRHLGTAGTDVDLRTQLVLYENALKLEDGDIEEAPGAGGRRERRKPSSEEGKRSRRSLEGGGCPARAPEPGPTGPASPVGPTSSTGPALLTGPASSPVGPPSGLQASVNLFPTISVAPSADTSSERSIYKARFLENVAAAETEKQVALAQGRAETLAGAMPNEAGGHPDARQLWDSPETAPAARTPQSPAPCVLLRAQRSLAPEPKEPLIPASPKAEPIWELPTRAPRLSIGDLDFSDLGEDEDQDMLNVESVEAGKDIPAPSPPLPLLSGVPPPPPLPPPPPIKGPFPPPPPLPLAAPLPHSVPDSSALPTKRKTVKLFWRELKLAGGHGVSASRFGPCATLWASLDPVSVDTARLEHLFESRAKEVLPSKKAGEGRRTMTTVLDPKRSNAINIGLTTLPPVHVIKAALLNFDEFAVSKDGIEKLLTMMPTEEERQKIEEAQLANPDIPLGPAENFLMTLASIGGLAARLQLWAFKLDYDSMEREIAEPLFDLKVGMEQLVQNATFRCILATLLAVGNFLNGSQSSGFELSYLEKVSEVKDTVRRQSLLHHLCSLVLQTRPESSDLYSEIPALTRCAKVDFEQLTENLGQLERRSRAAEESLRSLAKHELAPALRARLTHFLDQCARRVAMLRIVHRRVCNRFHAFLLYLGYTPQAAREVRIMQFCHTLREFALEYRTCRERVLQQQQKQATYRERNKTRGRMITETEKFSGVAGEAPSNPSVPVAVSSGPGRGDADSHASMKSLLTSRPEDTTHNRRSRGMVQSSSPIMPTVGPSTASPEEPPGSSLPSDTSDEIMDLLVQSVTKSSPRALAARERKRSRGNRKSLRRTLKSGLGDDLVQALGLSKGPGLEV
UniProt Q9UKT5: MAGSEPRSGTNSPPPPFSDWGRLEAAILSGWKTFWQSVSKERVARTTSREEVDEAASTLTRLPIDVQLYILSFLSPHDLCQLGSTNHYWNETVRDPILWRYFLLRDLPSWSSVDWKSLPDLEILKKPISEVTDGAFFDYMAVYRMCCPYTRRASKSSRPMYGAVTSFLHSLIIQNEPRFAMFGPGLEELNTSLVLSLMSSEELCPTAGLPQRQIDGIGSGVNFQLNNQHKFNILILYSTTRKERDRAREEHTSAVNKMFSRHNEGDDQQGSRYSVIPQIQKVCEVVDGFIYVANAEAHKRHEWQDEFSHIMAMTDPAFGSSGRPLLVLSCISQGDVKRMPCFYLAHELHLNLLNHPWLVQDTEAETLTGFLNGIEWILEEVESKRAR
UniProt P62942, whole entry, looked up: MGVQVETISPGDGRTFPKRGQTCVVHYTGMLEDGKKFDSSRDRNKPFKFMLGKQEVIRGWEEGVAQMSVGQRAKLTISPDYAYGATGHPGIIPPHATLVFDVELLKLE
UniProt Q8IW50: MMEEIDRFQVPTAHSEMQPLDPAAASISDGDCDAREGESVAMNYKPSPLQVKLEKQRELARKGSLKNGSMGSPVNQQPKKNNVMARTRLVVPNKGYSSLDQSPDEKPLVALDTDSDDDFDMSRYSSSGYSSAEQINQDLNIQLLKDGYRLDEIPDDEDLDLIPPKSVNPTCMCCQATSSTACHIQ

Legend:
Assay in all cases: log2 fold change, soluble protein after heating vs DMSO (PISA); higher = thermal stabilisation; K562 cells, 10 uM, 30 min; active = over 0.2 and 3.5 SD of the protein, either way, in both replicates (recomputed)
[1] = compound: CS(=O)(=O)c1ccc(-c2cnc(N)c(C(=O)Nc3ccccc3)n2)cc1
Procedure, shortened: (§1)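 Soluble protein was quantified by TMTpro 16plex LC-MS/MS after channel sums were equalised. It was obtained as the supernatant after 21,000xg for 90 min from pooled aliquots of K562 cells (2×10^6 cells/mL, 10 μM compound, 30 min) heated for 3 min across 48°C-58°C and extracted in PBS with 0.5% NP-40 at 4°C. Thermal stability values are relative to control samples and come from duplicates. They are given as log2 fold changes.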

crizotinib = compound: C[C@@H](Oc1cc(-c2cnn(C3CCNCC3)c2)cnc1N)c1c(Cl)ccc(F)c1Cl [crizotinib]
Procedure, shortened: as §1

[2] = compound: C[C@@H]1COCCN1C2=NC(=NC(=C2)C3(CC3)S(=O)(=O)C)C4=C5C=CNC5=CC=C4
Procedure, shortened: as §1

[3] = compound: C[C@H](C1=CC=C(C=C1)C(=O)NC2=C3C=CNC3=NC=C2)N
Procedure, shortened: as §1

duvelisib = compound: C[C@H](Nc1ncnc2nc[nH]c12)c1cc2cccc(Cl)c2c(=O)n1-c1ccccc1 [duvelisib]
Procedure, shortened: as §1

gandotinib = compound: Cc1cc(Nc2cc(CN3CCOCC3)c3nc(C)c(Cc4ccc(Cl)cc4F)n3n2)n[nH]1 [gandotinib]
Procedure, shortened: as §1

[4] = compound: Cc1cc(SCc2sc(-c3ccc(C(F)(F)F)cc3)nc2C)ccc1OCC(=O)O
Procedure, shortened: as §1

doramapimod = compound: Cc1ccc(-n2nc(C(C)(C)C)cc2NC(=O)Nc2ccc(OCCN3CCOCC3)c3ccccc23)cc1 [doramapimod]
Procedure, shortened: as §1

ispinesib = compound: Cc1ccc(C(=O)N(CCCN)[C@@H](c2nc3cc(Cl)ccc3c(=O)n2Cc2ccccc2)C(C)C)cc1 [ispinesib]
Procedure, shortened: as §1

bafetinib = compound: Cc1ccc(NC(=O)c2ccc(CN3CC[C@H](N(C)C)C3)c(C(F)(F)F)c2)cc1Nc1nccc(-c2cncnc2)n1 [bafetinib]
Procedure, shortened: as §1

[5] = compound: Cc1cccc(CC(=O)N2CCc3c2ccc(-c2cn(C)c4ncnc(N)c24)c3F)n1
Procedure, shortened: as §1

nilotinib = compound: Cc1cn(-c2cc(NC(=O)c3ccc(C)c(Nc4nccc(-c5cccnc5)n4)c3)cc(C(F)(F)F)c2)cn1 [nilotinib]
Procedure, shortened: as §1

[6] = compound: Cc1nc(Nc2n[nH]c3c2CN(C(=O)N[C@H](CN(C)C)c2ccccc2)C3(C)C)c2sccc2n1
Procedure, shortened: as §1

dasatinib = compound: Cc1nc(Nc2ncc(C(=O)Nc3c(C)cccc3Cl)s2)cc(N2CCN(CCO)CC2)n1 [dasatinib]
Procedure, shortened: as §1

[7] = compound: Cc1ncc(-c2ccnc(Nc3ccc(S(C)(=O)=O)cc3)n2)n1C(C)C
Procedure, shortened: as §1

[8] = compound: Cn1cc(-c2ccc3c(c2)CCN3C(=O)Cc2cccc(C(F)(F)F)c2)c2c(N)ncnc21
Procedure, shortened: as §1

[9] = compound: Cn1cc(-c2ccc3nnc(C(F)(F)c4ccc5ncccc5c4)n3n2)cn1
Procedure, shortened: as §1

tozasertib = compound: Cc1cc(Nc2cc(N3CCN(C)CC3)nc(Sc3ccc(NC(=O)C4CC4)cc3)n2)n[nH]1 [tozasertib]
Procedure, shortened: as §1

tipifarnib = compound: Cn1cncc1[C@@](N)(c1ccc(Cl)cc1)c1ccc2c(c1)c(-c1cccc(Cl)c1)cc(=O)n2C [tipifarnib]
Procedure, shortened: as §1

mubritinib = compound: FC(F)(F)c1ccc(/C=C/c2nc(COc3ccc(CCCCn4ccnn4)cc3)co2)cc1 [mubritinib]
Procedure, shortened: as §1

| Target | log2 fold change [1] | log2 fold change (crizotinib) | log2 fold change [2] | log2 fold change [3] | log2 fold change (duvelisib) | log2 fold change (gandotinib) | log2 fold change [4] | log2 fold change (doramapimod) | log2 fold change (ispinesib) | log2 fold change (bafetinib) | log2 fold change [5] | log2 fold change (nilotinib) | log2 fold change [6] | log2 fold change (dasatinib) | log2 fold change [7] | log2 fold change [8] | log2 fold change [9] | log2 fold change (tozasertib) | log2 fold change (tipifarnib) | log2 fold change (mubritinib) |
| --- | --- | --- | --- | --- | --- | --- | --- | --- | --- | --- | --- | --- | --- | --- | --- | --- | --- | --- | --- | --- |
| FAM210B (UniProt Q96KR6) | inactive: 0.058 | inactive: 0.029 | inactive: 0.018 | inactive: 0.045 | inactive: -0.005 | inactive: -0.043 | inactive: -0.001 | inactive: -0.001 | inactive: 0.099 | inactive: -0.09 | inactive: 0.02 | inactive: -0.028 | inactive: -0.024 | inactive: 0.007 | inactive: 0.035 | inactive: 0.051 | inactive: 0.02 |  |  |  |
| FH (UniProt P07954) | inactive: 0.011 | inactive: -0.014 | inactive: 0.05 | inactive: -0.056 | inactive: 0.028 | inactive: -0.003 | inactive: 0.026 | inactive: 0.01 | inactive: 0.08 | inactive: -0.005 | inactive: 0.002 | inactive: 0.071 | inactive: 0.025 | inactive: -0.079 | inactive: -0.06 | inactive: 0.063 | inactive: 0.016 | inactive: -0.035 | inactive: -0.036 | inactive: 0.136 |
| FAM49B (UniProt Q9NUQ9) | inactive: 0.019 | inactive: -0.057 | inactive: 0.047 | inactive: -0.051 | inactive: 0.039 | inactive: -0.098 | inactive: 0.003 | inactive: -0.009 | inactive: 0.011 | inactive: -0.001 | inactive: 0.011 | inactive: -0.003 | inactive: -0.017 | inactive: -0.057 | inactive: -0.012 | inactive: 0.062 | inactive: 0.037 | inactive: 0.006 | inactive: -0.009 | inactive: 0.047 |
| FAM8A1 (UniProt Q9UBU6) | inactive: 0.034 | inactive: -0.028 | inactive: 0.042 | inactive: -0.002 | inactive: -0.025 | inactive: 0.049 | inactive: 0.086 | inactive: -0.009 | inactive: -0.047 | inactive: -0.038 | inactive: 0.087 | inactive: -0.025 | inactive: 0.083 | inactive: 0 | inactive: -0.033 | inactive: -0.072 | inactive: 0.262 | inactive: -0.085 | inactive: 0.086 | inactive: 0.075 |
| FDX2 (UniProt Q6P4F2) | inactive: 0.018 | inactive: 0.166 | inactive: 0.097 | inactive: -0.037 | inactive: 0.091 | inactive: 0.09 | inactive: 0.012 | inactive: 0.028 | inactive: 0.063 | inactive: -0.028 | inactive: -0.033 | inactive: 0.005 | inactive: 0.02 | inactive: -0.007 | inactive: -0.048 | inactive: 0.123 | inactive: 0.016 | inactive: 0.024 | inactive: -0.02 | inactive: 0.02 |
| FDFT1 (UniProt P37268) | inactive: -0.009 | inactive: 0.105 | inactive: -0.032 | inactive: -0.065 | active: 0.32 | inactive: 0.061 | inactive: 0.174 | inactive: 0.02 | inactive: 0.077 | inactive: 0.01 | inactive: 0.016 | inactive: 0.12 | inactive: 0.071 | inactive: 0.023 | inactive: -0.019 | inactive: 0.111 | inactive: -0.047 |  | inactive: 0.089 | inactive: 0.022 |
| FBXL12 (UniProt Q9NXK8) | inactive: -0.022 | inactive: 0.105 | inactive: -0.007 | inactive: -0.088 | inactive: 0.013 | inactive: 0.035 | inactive: 0.017 | inactive: 0.11 | inactive: 0.023 | inactive: -0.053 | inactive: 0.134 | inactive: 0.026 | inactive: -0.134 | inactive: -0.119 | inactive: -0.114 | inactive: 0.039 | inactive: 0.023 | inactive: -0.047 | inactive: 0.022 | inactive: 0.018 |
| FAU (UniProt P62861) | inactive: -0.086 | inactive: -0.016 | inactive: -0.595 | inactive: 0.381 | inactive: -0.164 | inactive: 0.202 | inactive: 0.057 | inactive: 0.187 | inactive: -0.312 | inactive: 0.352 | inactive: -0.042 | inactive: 0.031 | inactive: 0.198 | inactive: 0.151 | inactive: -0.029 | inactive: -0.192 | inactive: -0.199 | inactive: 0.017 | inactive: 0.164 | inactive: -0.131 |
| FCHO2 (UniProt Q0JRZ9) | inactive: 0.012 | inactive: 0.057 | inactive: 0.008 | inactive: -0.073 | inactive: -0.067 | inactive: -0.158 | inactive: 0.058 | inactive: 0.02 | inactive: 0.027 | inactive: 0.092 | inactive: -0.014 | inactive: 0.214 | inactive: -0.118 | inactive: -0.121 | inactive: -0.127 | inactive: 0.034 | inactive: -0.051 | inactive: 0.235 | inactive: -0.084 | inactive: 0.008 |
| FANCD2 isoform 1 (UniProt Q9BXW9) | inactive: -0.056 | inactive: -0.052 | inactive: 0.127 | inactive: -0.014 |  | inactive: -0.135 | inactive: 0.034 | inactive: 0.004 | inactive: -0.096 | inactive: -0.06 | inactive: -0.014 | inactive: -0.145 | inactive: 0.15 | inactive: -0.167 | inactive: -0.119 | inactive: 0.126 | inactive: 0.1 |  | inactive: -0.024 | inactive: 0.052 |
| FBXO38 (UniProt Q6PIJ6) | inactive: 0.13 | inactive: 0.062 | inactive: 0.041 | inactive: 0.056 | inactive: -0.103 |  | inactive: 0.169 | inactive: -0.044 | inactive: 0.071 | inactive: -0.146 |  |  |  | inactive: -0.072 |  | inactive: 0.005 | inactive: 0.028 | inactive: -0.059 | inactive: 0.129 |  |
| FASN (UniProt P49327) | inactive: 0.125 | inactive: -0.023 | inactive: 0.053 | inactive: -0.051 | inactive: 0.004 | inactive: -0.082 | inactive: 0.03 | inactive: 0.003 | inactive: 0.057 | inactive: 0.033 | inactive: 0.023 | inactive: -0.01 | inactive: 0.036 | inactive: -0.056 | inactive: -0.007 | inactive: 0.021 | inactive: -0.004 | inactive: 0.016 | inactive: -0.069 | inactive: 0.087 |
| FKBP3 (UniProt Q00688) | inactive: -0.02 | inactive: 0.017 | inactive: 0.074 | inactive: -0.076 |  | inactive: -0.024 | inactive: -0.006 | inactive: 0 | inactive: 0.019 | inactive: 0.014 | inactive: -0.03 | inactive: 0.028 | inactive: 0.041 | inactive: -0.003 | inactive: 0.029 | inactive: -0.006 | inactive: 0.021 |  | inactive: -0.01 | inactive: 0.017 |
| FHOD1 (UniProt Q9Y613) | inactive: 0.033 | inactive: -0.107 | inactive: -0.174 | active: 0.58 |  | inactive: 0.105 | inactive: 0.085 | inactive: 0.235 | inactive: -0.193 | inactive: -0.187 | inactive: -0.005 | inactive: -0.089 | inactive: -0.109 | inactive: 0.044 | inactive: -0.043 | inactive: -0.238 | inactive: -0.089 |  | inactive: 0.041 | inactive: -0.218 |
| FBXO4 (UniProt Q9UKT5) | inactive: 0.072 | inactive: -0.126 | inactive: 0.132 | inactive: -0.019 | inactive: -0.071 | inactive: 0.002 | inactive: 0.045 | inactive: 0.014 | inactive: -0.006 | inactive: -0.033 | inactive: 0.066 | inactive: -0.041 | inactive: -0.04 | inactive: -0.15 | inactive: -0.019 | inactive: 0.089 | inactive: -0.003 | inactive: -0.016 | inactive: -0.142 | inactive: 0.113 |
| FKBP1A (UniProt P62942) | inactive: -0.015 | inactive: -0.002 | inactive: 0.198 | inactive: -0.106 | inactive: 0.238 | inactive: -0.037 | inactive: 0.17 | inactive: 0.07 | inactive: 0.004 | inactive: 0.027 | inactive: -0.092 | inactive: -0.017 | inactive: 0.069 | inactive: -0.152 | inactive: -0.054 | inactive: 0.075 | inactive: -0.06 | inactive: 0.029 | inactive: -0.169 | inactive: -0.013 |
| FAM219A (UniProt Q8IW50) | inactive: -0.027 | inactive: 0.067 | inactive: -0.212 | inactive: -0.062 | inactive: 0.014 |  | inactive: -0.071 | inactive: 0.115 |  | inactive: -0.032 |  | inactive: -0.304 | inactive: 0.044 | inactive: 0.201 | inactive: -0.037 | inactive: 0.043 |  | inactive: 0 | inactive: 0.066 | inactive: -0.028 |

Given as tab-separated lines: entries from further up
Target	log2 fold change [1]	log2 fold change (crizotinib)	log2 fold change [2]	log2 fold change [3]	log2 fold change (duvelisib)	log2 fold change (gandotinib)	log2 fold change [4]	log2 fold change (doramapimod)	log2 fold change (ispinesib)	log2 fold change (bafetinib)	log2 fold change [5]	log2 fold change (nilotinib)	log2 fold change [6]	log2 fold change (dasatinib)	log2 fold change [7]	log2 fold change [8]	log2 fold change [9]	log2 fold change (tozasertib)	log2 fold change (tipifarnib)	log2 fold change (mubritinib)
FKBP1A (UniProt P62942)	inactive: -0.015	inactive: -0.002	inactive: 0.198	inactive: -0.106	inactive: 0.238	inactive: -0.037	inactive: 0.17	inactive: 0.07	inactive: 0.004	inactive: 0.027	inactive: -0.092	inactive: -0.017	inactive: 0.069	inactive: -0.152	inactive: -0.054	inactive: 0.075	inactive: -0.06	inactive: 0.029	inactive: -0.169	inactive: -0.013
FAM219A (UniProt Q8IW50)	inactive: -0.027	inactive: 0.067	inactive: -0.212	inactive: -0.062	inactive: 0.014		inactive: -0.071	inactive: 0.115		inactive: -0.032		inactive: -0.304	inactive: 0.044	inactive: 0.201	inactive: -0.037	inactive: 0.043		inactive: 0	inactive: 0.066	inactive: -0.028
